Results are given in words; binding and its absence hold for the method and conditions named. In cells and extracts the contact can be indirect. Some binding calls cover weakened binding; strength is not graded here. For part of these data: Tags and fused reporters may be left off the sequences shown.
How the values were obtained:
[1] = biological target: T1, U2A′ (endogenous) (D. melanogaster (endogenous in embryos)) (UniProt Q9V4Q8); assay: co-IP; U2A′ and SPF45 immunoprecipitations from extracts (lysates) of wild-type and spf45^J23 mutant embryos, Western blots
T1 sequence: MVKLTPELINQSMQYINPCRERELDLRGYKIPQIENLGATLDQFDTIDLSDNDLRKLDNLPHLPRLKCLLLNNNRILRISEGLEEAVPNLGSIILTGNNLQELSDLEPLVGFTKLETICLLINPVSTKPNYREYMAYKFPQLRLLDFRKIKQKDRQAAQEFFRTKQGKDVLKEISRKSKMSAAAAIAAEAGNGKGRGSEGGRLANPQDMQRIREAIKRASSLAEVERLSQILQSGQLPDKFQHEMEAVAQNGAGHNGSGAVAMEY

[2] = biological target: T2, GST::U2A′ fusion protein (D. melanogaster) (UniProt Q9V4Q8); assay: condition: only extracts pretreated with RNase A and RNase T1; pull-down; as the GST pull-down, but extracts pretreated with RNase A and RNase T1; only the target purified
T2 sequence: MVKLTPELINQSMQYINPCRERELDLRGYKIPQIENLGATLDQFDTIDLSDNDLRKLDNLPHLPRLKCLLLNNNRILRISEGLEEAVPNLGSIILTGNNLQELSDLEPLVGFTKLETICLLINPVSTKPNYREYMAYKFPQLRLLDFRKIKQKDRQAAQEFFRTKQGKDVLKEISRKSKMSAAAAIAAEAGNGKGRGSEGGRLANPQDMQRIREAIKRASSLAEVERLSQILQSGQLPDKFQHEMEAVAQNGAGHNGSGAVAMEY

[3] = biological target: T2, GST::U2A′ fusion protein (D. melanogaster); assay: pull-down; GST or GST-tagged protein on glutathione beads incubated overnight at 4 °C with 2.5 mg extract of 3- to 18-h-old embryos; Western blots with antibodies against SPF45 or SNF; only the target purified

binding [1]: binds
binding [2]: no binding
binding [3]: binds
B1: SNF (endogenous) (protein, UniProt P43332 1-216)
chain: MEMLPNQTIYINNLNEKIKKEELKKSLYAIFSQFGQILDIVALKTLKMRGQAFVIFKEIGSASNALRTMQGFPFYDKPMQIAYSKSDSDIVAKIKGTFKERPKKVKPPKPAPGTDEKKDKKKKPSSAENSNPNAQTEQPPNQILFLTNLPEETNEMMLSMLFNQFPGFKEVRLVPNRHDIAFVEFTTELQSNAAKEALQGFKITPTHAMKITFAKK
